No constants are given. Whether binding was seen depends on the method and setting. In cells and extracts the contact can be indirect. Some entries that bind do so weakly or less than the wild type.
Tests used:
His-labeled FOXO3 = His-labeled FOXO3 (UniProt O43524); assay: co-IP; IP with anti-His or IgG from T24 and UM-UC-3 cells transfected with FOXO3-His or not; Protein A/G magnetic beads, 4 °C overnight; western blot
[1] = target: GST-ANAPC11 fusion protein (UniProt Q9NYG5); assay: pull-down; GST-ANAPC11 purified on glutathione Sepharose beads, incubated with T24 or UM-UC-3 cell lysates; eluted complexes detected by Coomassie blue staining and western blotting; only the target purified
[2] = target: ANAPC11 (human (endogenous in T24 and UM-UC-3)) (UniProt Q9NYG5); assay: co-IP; IP with anti-ANAPC11 antibody or IgG from T24 and UM-UC-3 lysates (endogenous proteins), Protein A/G magnetic beads, 4 °C overnight; western blot

By UniProt entry, the sequences of proteins in these tests, tags left out.
UniProt O43524: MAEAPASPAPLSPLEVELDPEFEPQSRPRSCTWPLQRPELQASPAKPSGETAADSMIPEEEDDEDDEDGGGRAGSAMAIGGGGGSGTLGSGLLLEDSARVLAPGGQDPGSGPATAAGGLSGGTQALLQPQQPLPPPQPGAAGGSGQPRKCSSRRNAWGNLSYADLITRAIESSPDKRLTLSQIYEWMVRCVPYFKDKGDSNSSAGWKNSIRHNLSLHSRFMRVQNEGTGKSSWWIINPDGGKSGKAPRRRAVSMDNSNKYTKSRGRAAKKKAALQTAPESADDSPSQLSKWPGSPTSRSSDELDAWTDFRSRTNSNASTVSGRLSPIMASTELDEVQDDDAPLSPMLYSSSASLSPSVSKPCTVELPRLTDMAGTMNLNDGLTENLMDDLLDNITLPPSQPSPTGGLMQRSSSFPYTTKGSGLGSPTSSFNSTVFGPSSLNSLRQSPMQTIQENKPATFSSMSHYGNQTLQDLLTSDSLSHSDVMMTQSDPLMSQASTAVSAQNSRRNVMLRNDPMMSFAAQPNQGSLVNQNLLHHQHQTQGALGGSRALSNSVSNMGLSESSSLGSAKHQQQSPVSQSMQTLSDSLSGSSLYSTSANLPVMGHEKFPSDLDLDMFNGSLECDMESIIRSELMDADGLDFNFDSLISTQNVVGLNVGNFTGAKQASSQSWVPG
UniProt Q9NYG5: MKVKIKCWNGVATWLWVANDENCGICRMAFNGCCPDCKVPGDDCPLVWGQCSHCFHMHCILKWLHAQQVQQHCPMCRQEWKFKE

binding (His-labeled FOXO3) | binding [1] | binding [2] | Substance
binds |  |  | ANAPC11 (from UniProt Q9NYG5 1-84)
 | binds | binds | FOXO3 (from UniProt O43524 1-673)
